Data taken from paper PMC8670446.
Results are given in words; binding and its absence hold for the method and conditions named.

Amino acid sequences for entries named in this document (tags omitted).
UniProt P10591: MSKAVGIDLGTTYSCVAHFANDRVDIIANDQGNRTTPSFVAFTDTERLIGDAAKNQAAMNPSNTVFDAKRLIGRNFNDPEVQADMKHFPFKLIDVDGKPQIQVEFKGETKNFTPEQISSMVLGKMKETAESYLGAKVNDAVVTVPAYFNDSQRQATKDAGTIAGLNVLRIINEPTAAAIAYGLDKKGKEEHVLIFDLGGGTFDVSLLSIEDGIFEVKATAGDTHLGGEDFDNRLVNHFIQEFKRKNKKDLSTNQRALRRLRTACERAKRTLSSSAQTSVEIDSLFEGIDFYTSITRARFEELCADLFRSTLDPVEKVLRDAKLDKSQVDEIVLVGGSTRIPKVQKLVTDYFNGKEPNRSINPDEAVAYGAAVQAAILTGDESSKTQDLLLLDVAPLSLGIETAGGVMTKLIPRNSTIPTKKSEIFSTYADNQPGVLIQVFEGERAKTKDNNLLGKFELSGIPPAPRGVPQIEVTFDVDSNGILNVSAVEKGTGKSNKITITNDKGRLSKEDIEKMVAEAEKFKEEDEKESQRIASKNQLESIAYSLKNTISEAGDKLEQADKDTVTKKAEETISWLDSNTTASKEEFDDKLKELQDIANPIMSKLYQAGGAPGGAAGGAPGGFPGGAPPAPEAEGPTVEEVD
UniProt P25491: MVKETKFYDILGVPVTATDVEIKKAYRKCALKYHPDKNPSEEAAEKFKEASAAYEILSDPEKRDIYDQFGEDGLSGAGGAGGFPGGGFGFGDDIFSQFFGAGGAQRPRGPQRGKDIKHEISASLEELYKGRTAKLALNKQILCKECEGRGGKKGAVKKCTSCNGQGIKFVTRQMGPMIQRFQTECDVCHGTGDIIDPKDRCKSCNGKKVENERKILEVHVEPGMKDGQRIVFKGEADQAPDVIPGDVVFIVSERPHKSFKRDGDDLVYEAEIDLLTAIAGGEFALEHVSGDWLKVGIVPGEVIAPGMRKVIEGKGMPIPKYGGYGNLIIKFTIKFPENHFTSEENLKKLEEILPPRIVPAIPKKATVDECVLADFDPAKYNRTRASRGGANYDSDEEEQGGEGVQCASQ

Biological target: His6-SUMO [SUMO: Q12306]
Assay: BLI; His6-SUMO immobilised on the sensor; JDPs or Ssa1 in solution; background control; both purified

Row | Substance | binding
1 | Ssa1 (from UniProt P10591 1-642) | no binding
2 | Ydj1 (from UniProt P25491 1-409) | no binding
